Assay results published in PubChem BioAssay AID624415 (National Center for Advancing Translational Sciences (NCATS), 2012).
The campaign covered roughly 390,000 compounds. About 60 (0.02%) were called active. Inconclusive results, whose numbers are uncertain, are shown with a selection of clear calls. Rule as the data show it: active = activity change below about -50%; inconclusive = between about -30% and that limit; inactive = weaker than that.
% is scaled to controls: 0 for no effect and ±100 for the full control effect.
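Also: stimulus is agonist 54-4 at its EC80 concentration.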

Sequences of proteins named here, by UniProt entry; tags and fusion partners are left off.
UniProt Q9GZU1, whole entry, looked up: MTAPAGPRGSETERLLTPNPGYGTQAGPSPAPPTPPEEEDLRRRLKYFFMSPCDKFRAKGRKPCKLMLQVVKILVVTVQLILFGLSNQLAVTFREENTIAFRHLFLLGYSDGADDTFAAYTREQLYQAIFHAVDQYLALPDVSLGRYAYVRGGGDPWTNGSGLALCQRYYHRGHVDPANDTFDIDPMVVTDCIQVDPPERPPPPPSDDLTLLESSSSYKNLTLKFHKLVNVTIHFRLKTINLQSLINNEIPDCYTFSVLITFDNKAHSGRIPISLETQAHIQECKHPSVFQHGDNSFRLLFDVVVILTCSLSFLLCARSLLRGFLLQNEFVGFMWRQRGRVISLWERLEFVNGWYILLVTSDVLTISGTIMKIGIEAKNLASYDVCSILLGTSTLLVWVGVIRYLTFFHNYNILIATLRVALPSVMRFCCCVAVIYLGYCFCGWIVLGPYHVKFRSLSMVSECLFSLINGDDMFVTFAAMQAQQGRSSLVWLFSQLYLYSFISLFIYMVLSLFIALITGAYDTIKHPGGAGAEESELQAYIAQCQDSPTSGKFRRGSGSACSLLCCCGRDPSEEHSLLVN

Each compound was assayed against Mucolipin-1 (Homo sapiens) (UniProt Q9GZU1) (assay: qHTS for Inhibitors of the Human Mucolipin Transient Receptor Potential 1 (TRPML1)). Details: TRPML1-inducible cells, Ca2+ dye fluorescence, FDSS; active compounds read low; inhibition of EC80 agonist-evoked calcium signal.
Method in brief: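 TRPML1-DL cells, Tet-induced overnight (~16 h, 37 °C) at 1,500 cells/well, were loaded with Ca8 no-wash dye plus quencher for 45-90 min at room temperature. Compounds were pinned during FDSS kinetic reading; agonist 54-4 at EC80 (4 uM final) then added.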
With Cc1cc(C)c2oc(-c3cccc(NC(=O)COc4ccccc4Cl)c3C)nc2c1 the activity change, negative = inhibition was inconclusive: -31.2%.
CC[n+]1ccccc1/C=C/Nc1ccccc1 was tested, and the activity change, negative = inhibition was inactive: -15.1%.
Cc1cc(/C=C(\C#N)C(=O)N2CCCCC2)cc(C)c1O was tested, and the activity change, negative = inhibition was inconclusive: -32.9%.
For CCCC(=O)N1CCC(Cc2ccccc2)CC1, the activity change, negative = inhibition was inactive: 43.7%.
With C=CCC(NC(C)c1ccccc1)c1ccco1 (stereo not drawn) the activity change, negative = inhibition was inconclusive: -32.8%.
In the case of COCCNC(=O)C(=O)Nc1c2c(nn1-c1ccccc1)CS(=O)(=O)C2, the activity change, negative = inhibition is reported as inactive: 0.234%.
Nn1c(Cc2cccc3ccccc23)nnc1SCc1ccccc1 was tested, and the activity change, negative = inhibition was inconclusive: -31.8%.
In the case of CC(=O)N1N=C(c2ccc(C)o2)CC1c1cccc(F)c1 (stereo not drawn), the activity change, negative = inhibition is reported as inconclusive: -31.5%.
Cc1ccc(S(=O)(=O)N2CCN(C(=O)c3ccccc3)CC2)c(C)c1NS(C)(=O)=O was tested, and the activity change, negative = inhibition was inconclusive: -31.8%.
In the case of COc1ccc(Cl)cc1S(=O)(=O)N1CCN=C1C, the activity change, negative = inhibition is reported as inconclusive: -34%.
In the case of O=C(/C=C/c1cccc([N+](=O)[O-])c1)NCCc1ccc(F)cc1, the activity change, negative = inhibition is reported as inconclusive: -31.4%.
With CCC(C)[C@H](N)c1nnc(SCC(=O)Nc2ccc(C)cc2C)o1 (stereo partly drawn) the activity change, negative = inhibition was inconclusive: -30.2%.
With COc1ccc(OC)c(CNC(=O)c2cc(-c3ccc(Cl)s3)nc3ccccc23)c1 the activity change, negative = inhibition was inconclusive: -33.9%.
With CC(=O)C1=C(C)NC(=O)NC1/C=C/c1ccccc1 (stereo not drawn) the activity change, negative = inhibition was inconclusive: -31.2%.
N#CCSCC(=O)Nc1ccccc1 was tested, and the activity change, negative = inhibition was inconclusive: -34.4%.
With COc1ccc(NC(=O)CSc2ccc(-c3cccs3)nn2)cc1 the activity change, negative = inhibition was inconclusive: -49.5%.
For COc1ccccc1NC(CC(=O)c1ccccc1)C(=O)OCC(=O)c1ccc(F)cc1 (stereo not drawn), the activity change, negative = inhibition was inconclusive: -35.3%.
Cc1ccc2c(c1)/C(=N/N1C(=O)c3ccccc3C1=O)C(=O)N2 was tested, and the activity change, negative = inhibition was inactive: -1.51%.
CC1CCN(C(=O)CN2c3ccc(Br)cc3-c3ccccc3S2(=O)=O)CC1 was tested, and the activity change, negative = inhibition was inconclusive: -47.9%.
In the case of Cc1c(C(=O)N2CCC(C)CC2)c(S(=O)(=O)Nc2cccc(C#N)c2)c(C)n1C, the activity change, negative = inhibition is reported as inconclusive: -36.6%.
In the case of CCOc1ccc(CCNC(=O)CSc2nnnn2-c2ccccc2Cl)cc1OCC, the activity change, negative = inhibition is reported as inconclusive: -30.2%.
COc1ccc(NC(=O)CCCC(=O)c2ccccc2)cc1 was tested, and the activity change, negative = inhibition was inconclusive: -34.8%.
With Cc1ccc(C(=O)CSc2nc3ccccc3c(=O)[nH]2)cc1C the activity change, negative = inhibition was inconclusive: -35.2%.
With COc1cc(CN2CCC(Cc3ccccc3)CC2)cc([N+](=O)[O-])c1O the activity change, negative = inhibition was inconclusive: -35.7%.
With COc1ccccc1-n1cnc2cc(NCc3ccccn3)ccc21 the activity change, negative = inhibition was active: -50.5%.
For CCCOc1ccc(-c2cccc(NS(=O)(=O)c3cccs3)c2)nn1, the activity change, negative = inhibition was inconclusive: -30.6%.
O=C(CCCn1c(=O)c2cccn2c2ccccc21)Nc1cccc(Cl)c1 was tested, and the activity change, negative = inhibition was inactive: 39.4%.
In the case of O=c1cc2oc3cc(O)c(O)cc3c(-c3ccccc3[N+](=O)[O-])c-2cc1O, the activity change, negative = inhibition is reported as inactive: 9.03%.
CCOc1ccc(N(CC(=O)Nc2ccc3c(c2)OCO3)S(=O)(=O)c2ccccc2)cc1 was tested, and the activity change, negative = inhibition was inactive: 4.21%.
O=C1C[C@H](c2ccc3ccccc3c2)N1S(=O)(=O)c1ccccc1[N+](=O)[O-] was tested, and the activity change, negative = inhibition was inactive: 31.9%.
For CC(C)(C)c1cc(C(=O)NN)n(Cc2ccc(Cl)cc2Cl)n1, the activity change, negative = inhibition was inconclusive: -38.2%.
Oc1ccc2oc3c(c2c1C=NCc1ccncc1)CCCC3 was tested, and the activity change, negative = inhibition was inconclusive: -34.2%.
Cc1ccc(NC(=O)C2CCCN(c3cnccn3)C2)c(C)c1 (stereo not drawn) was tested, and the activity change, negative = inhibition was inconclusive: -30.2%.
With COc1ccc(NC(=O)N2CCN3CCCCC3C2)cc1OC (stereo not drawn) the activity change, negative = inhibition was active: -50.6%.
With Cc1cccn2c(=O)cc(COc3cccc(NC(=O)COc4ccccc4)c3)nc12 the activity change, negative = inhibition was inconclusive: -40.8%.
CCN(CC)S(=O)(=O)c1ccc(OC)c(NC(=O)CSc2cc(Cl)ccc2Cl)c1 was tested, and the activity change, negative = inhibition was inconclusive: -43.7%.
In the case of Nc1ccc[n+](CC(=O)c2ccccc2)c1, the activity change, negative = inhibition is reported as inconclusive: -30.9%.
In the case of COc1ccc(C(=O)Nc2ccc3nc(C)sc3c2)cc1OC, the activity change, negative = inhibition is reported as inconclusive: -31.6%.
With CN(C)CCCNc1ncnc2sc(-c3ccccc3)cc12 the activity change, negative = inhibition was inconclusive: -40.8%.
With CCc1nc(SCC(=O)Nc2cc(OC)ccc2OC)c2c(C)c(C)sc2n1 the activity change, negative = inhibition was inconclusive: -49.8%.
For CCCCC(=O)NC(=O)NC(c1ccccc1)c1ccccc1, the activity change, negative = inhibition was inconclusive: -39.4%.
Cc1nc(CC(=O)N/N=C/c2ccc(OCC(=O)O)cc2)cs1 was tested, and the activity change, negative = inhibition was inconclusive: -41.8%.
For O=C(O)CCCn1cc(NC(=O)c2sc3ccccc3c2Cl)cn1, the activity change, negative = inhibition was inconclusive: -32%.
CC(C)c1ccc2oc(=O)cc(CN3CCN(c4ccccc4)CC3)c2c1 was tested, and the activity change, negative = inhibition was inconclusive: -32.6%.
For O=C(COC(=O)CCc1c[nH]c2ccccc12)NC(c1ccccc1)c1ccccc1, the activity change, negative = inhibition was inactive: 14.9%.
C=C(C)C1CC=C(C)/C(=N/NC(=O)CCC(=O)Nc2ccccc2Cl)C1 (stereo not drawn) was tested, and the activity change, negative = inhibition was inconclusive: -32.7%.
For O=C(Nc1ccc2nccnc2c1)c1ccco1, the activity change, negative = inhibition was inconclusive: -36.6%.
Cn1nc(-c2ccccc2)nc1-c1ccccc1 was tested, and the activity change, negative = inhibition was inconclusive: -35.8%.
In the case of COc1ccc(C(=O)/C=C/C(=O)N(CC(=O)NCCC(C)C)Cc2cccs2)c(O)c1, the activity change, negative = inhibition is reported as inconclusive: -30.3%.
In the case of N#Cc1ccc(OCC(=O)N2CCc3ccccc32)cc1, the activity change, negative = inhibition is reported as inactive: -14.3%.
CCOc1ccc(CCNC(=O)c2ccc(CNS(=O)(=O)c3ccccc3)cc2)cc1OCC was tested, and the activity change, negative = inhibition was inconclusive: -43.8%.
For COc1ccc(Nc2cc(C)nc3ncnn23)cc1, the activity change, negative = inhibition was inconclusive: -33.6%.
For CCN(CC)c1nc(C)c(C(=S)Nc2cc([N+](=O)[O-])ccc2Cl)s1, the activity change, negative = inhibition was inactive: -3.69%.
In the case of CCn1c(SCC(=O)Nc2ccccc2)nc2nc3c(cc2c1=O)COC(C)(C)C3, the activity change, negative = inhibition is reported as inactive: -0.47%.
CCOc1ccc(NC(=O)C2CSC(c3ccncc3)=N2)cc1 (stereo not drawn) was tested, and the activity change, negative = inhibition was inactive: 11.1%.
In the case of Clc1ccc2nc(C(Cl)(Cl)Cl)[nH]c2c1, the activity change, negative = inhibition is reported as inconclusive: -34.9%.
Cc1ccc(N2C(=O)C3ON(c4ccccc4)C(CC(C)C)C3C2=O)cc1 (stereo not drawn) was tested, and the activity change, negative = inhibition was inconclusive: -33.5%.
In the case of COc1ccc(N2CC(O)=C(c3nc(-c4ccc(F)cc4)cs3)C2=N)cc1, the activity change, negative = inhibition is reported as inconclusive: -31.2%.
